From the RNAGym collection of RNA variant scans (doi:10.1126/science.aae0568)
This sample is rich in variants without activity.

B1: tRNA (parent)
chain: GUUCCGUUGGCGUAAUGGUAACGCGUCUCCCUCCUAAGGAGAAGACUGCGGGUUCGAGUCCCGUACGGAACG

Variants of: B1
Assay: yeast fitness relative to wild type (ratio to wild type); higher = fitter; tRNA-Arg(CCU), competitive growth, 37 C, YPD
Summary of the method: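 Variants of the tRNA-Arg(CCU) gene, chemically synthesised with a 3% per-site mutation rate at 69 sites, were placed at the native genomic locus in Saccharomyces cerevisiae. The pooled strains were competed in YPD at 37°C for 24 hours in six parallel replicates. Gene amplicons from the start population and from each end population were read by 100-nucleotide paired-end sequencing. Darwinian fitness relative to wild type came from changes in genotype frequencies; genotypes needed ≥ 100 starting reads, and estimates < 0.5 were set to 0.5.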

Row | Variant | yeast fitness
1 | GUUGCGUUGGCGUAAUGGUAACGCGUCUCGCUCCUAAGGAGAAGACUGCUGGUUCGAGUCCCGUACGGAACG | ≤ 0.5
2 | GUUCCGUUGGCGUAAUGAUAACGCGUCUCCCUCCUAAGGAGAAGACUGCGGGUUCGAGUCCCGUACGGAGCG | 0.646
3 | GUUGAGUUGGUGUAAUGCUAACGCGUCUCCCUCCUAAGGAGAAGACUGCGGGUUUGAGUCCCGUACGGAACG | ≤ 0.5
4 | GUUGCGUUGGCGUAAUGGUAACGCGUAUCCCUCCUGAGGAGAAGACUGCGGGUUCGAGUCCCGUACGGAUCG | ≤ 0.5
5 | GUUCCGUUGGCCUAAUGCUAACGCGUCUCCCUCCUAAGGAGAAGACUGCGGGUUCGAGUCCCGUACGGAUCG | ≤ 0.5
6 | GUUCAGUUGGCGUAACGGUAACGCGUCUUCCUCCUACGGAGAAGACUGCGGGUUCCAGUCCCGUACGGAACG | ≤ 0.5
7 | GUUCCCAUGGCGUAAUGGUAACCCGUCUCCCUCCUAAGGAGAAGACUGCGGGUUCGAGUCCUGUACGGAACG | ≤ 0.5
8 | GUUCCGAUGGCGUACUGGUAACGGGUCUCCAUCCUAACGAGAAGACUGCGCGUUCGAGUCGCGUACGGAACG | ≤ 0.5
9 | GUUCCGUUGGCGUAAUGGUAAGGCGUCUCCCUCCUAAGGAAAAGACUCCGGGUUCGAGUCCCGUACGCAACG | ≤ 0.5
10 | GUUCCGUUGCCGUAAUGGUAACGCGUCUCCCUCCUAAGGAGAAGACUGCGGGUUCGAGUCCUGAACGGAACG | ≤ 0.5
11 | GUUCCGUGGGCGUAAUGGUAACGCGUCUCCCUCCUAAGGAACAGACUGCCGGUUCGAGUCCCGUACGGAGCG | ≤ 0.5
12 | GUUACGUUGGCGUAAUGGUAACGCGUCUCCCUCCUAAGGAGAAGACUGCCGGUUCGAGUGCCGUACGGAACG | ≤ 0.5
13 | GUUCCAUUGGCGUAAUAGUAACGCGUCUCCCCCCUAAGGAGAAGACUGCGGGUUCGAGUCCCGUACGGAACG | ≤ 0.5
14 | GUUCCGUUGGCGUAAUAGUAACGCGUUUCCCUCCUCAGGAGAAGACUGCGGGUUGGAGUCCCGUACGGAACG | ≤ 0.5
15 | GUUCGGUUGGCGUAAUGGUAAUGCGUCUCCCUCCUAAGGAGAAGACUGCGGGUUCGAGUCCAGUCCGGAACG | ≤ 0.5
16 | GUUCCGUUGGGGUAAUGGUAACGCGUGUCCCUCCUAAGGAGAAGACUGCGGGUUCGAGUCCCGUACAGAACG | ≤ 0.5
17 | GUUCCGUUGGCGUAAUGGUUACGCGUCUUCCUCCUCAGGAGAAGACUGCGGGUUCGAGUCCCGUACGGAACG | ≤ 0.5
18 | GUUCCGUUGGCGUAAUGGUAACGCGUCUCCCCACUGAGGAGAAGACUGCGGGUUCGAGUCCCGUACGGAACG | ≤ 0.5
19 | GUUCCGUUGGCGUAAUGGUAACGCGUCUGCCUCCUAAGGAAAUGACUGCGGGUUCGAGUCCCGUUCGGAACG | ≤ 0.5

Row | Variant | yeast fitness
20 | GUUCCGUUGACGUAAUGGUAUCGCGUCUCCAUCCUAAGCAGAAGACUGCGGGUUCGAGUCCGGUACGAAACG | ≤ 0.5
21 | GUUCCGUUGGCGUAAUGGUAACGGGUCUCCCUCCUACGGAGAAGAUUGCGGGUUCGAGUCCCGUCCGGAACG | ≤ 0.5
22 | GUUCCGUUGGCGUAAUGGUAACGCGUCUGUUUCCUAAGGAGAAGACUGCGGGUCCGAGUCCCGUACGGAACG | ≤ 0.5
23 | GUUCCGUUGGUGUAAUGGUAACGCGUCUUCCUCCUAAGGAGAAGAGUGUGGGUUCGAGUCCCGUACGGAACG | ≤ 0.5
24 | GUUCCGUUGGCAUAAUGGUAACGCGUCUCCUUCCUAAGGCGAAGACUGCGGGUUCGAGUCUCGUACGGAACG | ≤ 0.5
25 | GUUCCGUUGGCGUAAUGGUAAGGCGUCUCCUUCCUAAGGCGAAGACUGGGGGUUCGAGUGCCGUACGGAACG | ≤ 0.5
26 | GUUCCGUUGGCGUAAUGGAAACGCGUCUCCCUCCUAAGGAAAAGACUGCGGGUUGGAUUCCCGUACGGAACG | ≤ 0.5
27 | GUUCUGUUGGCGUAAUGGUACCGCGUCUCUCUCCUAAGGAGAAGACUGCGGGUUCGAGUAGCGUACGGAACG | ≤ 0.5
28 | GUUCCGUUGGCGUAAUGGUAUCGCGUCUCCCUCCUAAGGAGCAGACGGCGGGUUCGAGUCCCAUACGGUACG | ≤ 0.5
29 | GUUCCGUUGGCGUAUUGGUAACGCGUCUCCCUCCUAAGGAGAAGAGUGCGGGUUCGAGUCACGUAUGGAACG | ≤ 0.5
30 | GUUCCGUUGGCGUAAUGGUAACGCGUCUCCCUCCUAAGGAGAAGACUGUGGGUUCGAGUACUGUACGGAACG | ≤ 0.5
31 | GUUUCGUUGGUGUAAUGGUAAGGCGUCUCCCUCCUAAGGAGAAGACUGCGGGUUCGAGUCCCGUACGGAUCG | ≤ 0.5
32 | GAUCCGUUGGGGUAAUGGUAACGCAUCUCCCUCCUAAGGAGAAGACUGAGGGUUCGAGUGCCGUACGGAACG | ≤ 0.5
33 | GUUCAGUUGGCGUAAUGGUAAGGCGUCUCCCUCCUAAGGAGAAGACUGCGGGUUCGAGGCCCGUACGGAACG | ≤ 0.5
34 | GUCCCGUUGGCGUCAUGGUAACGCGUCUCCCUCCUAAGGAGAAGACUGCGGGUUCGAGUCCCGUACGGAACG | 0.703
35 | GAUCCGUUGGCGUAAUGGUAACGCGUCUCCCUGCUAAGGAGCAGACUGCGGGUUUGAGUCCCAUACGGAACG | ≤ 0.5
36 | GUUCCGUUGGCGUAAUGGUAACGCGUCUCCCUCCUUAGGAGAAGACUGCGGGUUUAAGUCCCGUACGGAACG | 0.864
37 | GUUCCGUUGGCGUAAUGGUAACGCGUCUCCCUUCUAAGGAGCAGACUGCGGGUUCGAGUCCCGUACGUAACG | 0.538
